For this series, the system named is CHO-7 cells. The series is classed as cell-based, hamster.

Here are results for 2 compounds from publication PMC4718804 (eLife, 2015).

Consider `C#CCOc1ccc(C(=O)c2ccc(C(=O)OCCN(CC)CCOC3CCC4(C)C(=CCC5C6CCC(=O)C6(C)CCC54)C3)cc2)cc1` (centres unmarked) [U-X], for which the “[14C]triglyceride content” value came out at 106 nmol/hr/ mg protein. Under `CCC(CC)CCOC1CCC2(C)C(=CCC3C2CCC2(C)C3CCC2N(C)C)C1` (centres unmarked) [compound A] stands 116 nmol/hr/ mg protein.
